System: mouse model of abdominal wall lymphedema
Test: Mouse model of abdominal wall lymphedema, thickness of the skin section (wild-type mouse)
Assay type: in vivo, C57BL/6J mouse
Settings: C57BL/6J mice; combined results of Experiments 2 and 3; pitavastatin 1 mg/kg/day, atorvastatin 2.5 or 1 mg/kg/day, pravastatin 1 mg/kg/day oral; after seven days; FIG. 2
Protocol: A male C57BL/6J mouse and a male eNOS-deficient mouse having a genetic background of C57BL/6J, both of which are eight weeks old at the time of surgery, each receives an intraperitoneal injection of Nembutal at 60 mg/kg, and further receives a subcutaneous injection of 1% Evans blue for identification of lymph nodes and lymphatic vessels in the dorsum of the right foot, the back of the hand, and the buttocks in an amount of 0.05 mL at each site. The abdominal hair was removed and the abdominal skin is incised in an open-door fashion so as to identify the inguinal lymph nodes, axillary lymph nodes, and lymphatic vessels connecting these lymph nodes in the right abdominal wall. The lymphatic vessels are ligated at two to three sites near the axillary lymph nodes, followed by excision of the axillary lymph nodes. Subsequently, the skin is sutured, whereby the surgery is completed. On the seventh day after the surgery, the abdominal skin is once again incised in an open-door fashion to collect the abdominal wall tissues. The mice were orally administered with the statins dissolved in distilled water (250 μl) from three days before to seven days after the surgery once a day. […] Methanol-fixed paraffin-embedded tissue sections were stained with hematoxylin, and the thickness of the skin section prepared from the upper inguinal area, which is the lowermost part of a mouse, was measured. […]

Question: With `CC(C)c1c(C(=O)Nc2ccccc2)c(-c2ccccc2)c(-c2ccc(F)cc2)n1CC[C@@H](O)C[C@@H](O)CC(=O)O` [atorvastatin, (3R,5R)-7-[2-(4-fluorophenyl)-5-isopropyl-3-phenyl-4-phenylcarbamoyl-1H-pyrrol-1-yl]-3,5-dihydroxyheptanoic acid] as the molecule, how does the “lymphedema (thickness of the skin)” value read?
Answer: Its value is “markedly inhibit”.

From patent US20130210860A1, “PROPHYLACTIC AND/OR THERAPEUTIC AGENT AGAINST LYMPHEDEMA” (KOWA CO., LTD., priority 2010, published 2013)
